Test results as given in PubChem BioAssay (Tox21).
Where “and” joins values, the source holds several entries; their conditions need not be identical. Equal entries are not always repeated. This list was built around the results that the source calls inconclusive (neither active nor inactive); the mix of calls is not that of the screen. A potency beside an inconclusive call is a rough fit, not a confirmed value. A structure can be active in one record and inactive in another. Calls of active or inactive are those of the source. The call rests on the fitted dose curve.

Protein sequences, listed by entry. Tags and fused reporters are not part of them. Lines headed by an entry give the natural chain unless they say otherwise; changes in a name come on top.
UniProt P19793: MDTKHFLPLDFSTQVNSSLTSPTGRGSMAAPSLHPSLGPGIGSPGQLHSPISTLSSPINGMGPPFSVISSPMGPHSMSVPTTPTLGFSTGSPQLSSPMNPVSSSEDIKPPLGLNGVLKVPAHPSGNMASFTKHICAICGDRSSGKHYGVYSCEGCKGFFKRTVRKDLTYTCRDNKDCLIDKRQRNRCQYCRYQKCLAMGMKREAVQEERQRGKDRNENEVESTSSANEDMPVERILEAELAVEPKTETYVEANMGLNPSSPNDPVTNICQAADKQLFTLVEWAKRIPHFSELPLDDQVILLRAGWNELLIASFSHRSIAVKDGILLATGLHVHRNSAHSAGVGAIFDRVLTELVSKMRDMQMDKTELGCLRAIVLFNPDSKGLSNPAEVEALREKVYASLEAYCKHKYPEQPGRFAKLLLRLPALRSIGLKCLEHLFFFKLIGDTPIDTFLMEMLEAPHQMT

The compounds below were run against Retinoic acid receptor RXR-alpha (Homo sapiens) (UniProt P19793) (assay: qHTS assay to identify small molecule agonists of the RXR signaling pathway (AID 1159527; further: nearly all actives have a fitted effect of over 35% in size)). Details: HEK293T RXRa-UAS-bla, beta-lactamase ratio, 16 h; activation: at 76.8 µM (top of the series) unless noted.
In short: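 Agonist mode; 9-cis retinoic acid positive control. HEK 293T UAS-bla reporter cells, 2% charcoal-stripped FBS, 16 hr compound exposure at 37 C/5% CO2. LiveBLAzer B/G FRET substrate 2 hr RT; ex 405, em 460/530 nm.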
On the % scale 0 is the no-effect control and ±100 the full control effect; potency means the concentration at half of the fitted maximal effect.

Compound	activation	Potency
CC(C)=O	inactive: 1.28%	
CC(C)C[P+](C)(CC(C)C)CC(C)C	inactive: 5.73%	
CCCCCCCCCCCCSC	inactive: 7.23%	
CC/C(C)=N\O[Si](C)(O/N=C(\C)CC)O/N=C(\C)CC	inactive: -9.9%	
O=C(O)c1cc2ccccc2nc1C(=O)O	inactive: 7.82%	
Cc1ccc([N+](=O)[O-])cc1S(=O)(=O)O	inconclusive: 24.5%	
CCOC(=O)CC(O)(CC(=O)OCC)C(=O)OCC	inconclusive: -26.5%	
O=C(O)c1cc(-c2ccccc2)nc2ccccc12		inconclusive: 0.0031 µM [fluorescent, full curve, poor fit]
C[Si](O[Si](C)(C)C)O[Si](C)(C)C		inconclusive: 45.7 µM [activator, partial curve]
CC(=O)Oc1cccc(O)c1	inactive: 5.91% [at 35.3 µM]	
CCOc1ccc(NC(C)=O)cc1N	inconclusive: -34.4%	
CC(C)(C)NCC(O)COc1cccc2c1CCC(=O)N2 (stereo not given)	inactive: 1.37% [at 35.3 µM]	
O=S1(=O)CCCO1		inactive
CC1(C)[C@@H]2CC[C@@]1(C)[C@H](O)C2	inactive: 11.3%	
O=S(=O)(O)CCS		inactive
CCCC(=O)OCCc1ccccc1	inactive: 14.6%	
COC(C)(C)OC	inactive: 11.2%	
CC(=O)Nc1cccc(N)c1		inconclusive: 31.3 µM [activator, partial curve, poor fit]
COc1cc(NS(=O)(=O)c2ccc(N)cc2)nc(OC)n1	inactive: 5.03% [at 35.3 µM]	
CC(C)(Cc1c[nH]c2ccccc12)NCC(O)COc1ccccc1C#N (stereo not given)	inconclusive: -20.7% [at 35.3 µM]	

Reprinted at random: two compounds from above
Compound	activation	Potency
CC(C)=O	inactive: 1.28%	
CC(C)(Cc1c[nH]c2ccccc12)NCC(O)COc1ccccc1C#N (stereo not given)	inconclusive: -20.7% [at 35.3 µM]	

Further results:

Compound	activation	Potency
O=C(c1ccccc1)C1CCC1	inactive: 7.31%	
CCCCOCCOCCOC(=O)CCCCC(=O)OCCOCCOCCCC		inactive
O=[N+]([O-])c1ccc(Cl)cc1Cl		inconclusive: 54.3 µM [activator, partial curve, poor fit]
CCN(CC)CCNC(=O)c1cc(Cl)c(N)cc1OC	inconclusive: 13% [at 35.3 µM]	
CCCCNS(=O)(=O)c1ccc(C)cc1	inactive: 4.93%	
COC(=O)Nc1nc2ccc(C(=O)C3CC3)cc2[nH]1		inconclusive: 2.39 µM [inhibitor, partial curve]
BrCCOc1ccccc1	inactive: -2.96%	
OCC(CO)n1cnc(-c2ccc(F)cc2)c1-c1ccnc(Oc2ccccc2)n1	inconclusive: 14.9%	
CC1(C)O[C@@H]2[C@@H](CO[C@@]3(COS(N)(=O)=O)OC(C)(C)O[C@@H]23)O1		active: 17.4 µM
Oc1ccc(OCc2ccccc2)cc1		inconclusive: 26.8 µM [rising, partial curve, poor fit]
C=CC(C)(CCC=C(C)C)OC=O (stereo not given)	inactive: -1.65%	
COc1ccc(/C=C/S(=O)(=O)NC(=O)c2ccc(C)cc2Cl)cc1	inconclusive: -2.54%	
O=C(C(Cl)Cl)N1CCOC12CCCCC2	inactive: -19.7%	
OC[C@H]1O[C@H](O[C@H]2O[C@H](CO)[C@@H](O)[C@H](O)[C@H]2O)[C@H](O)[C@@H](O)[C@@H]1O		inconclusive: 22 µM [activator, partial curve]
C=CC(C)(O)CCC=C(C)C (stereo not given)		inconclusive: 43.2 µM [activator, partial curve, poor fit] and inconclusive: 24.5 µM [inhibitor, partial curve, poor fit]
CCCSSCCC	inactive: -0.66%	
CS(=O)(=O)c1ccc([C@@H](O)[C@@H](CO)NC(=O)C(Cl)Cl)cc1		inconclusive: 23.9 µM [falling, partial curve, poor fit]
CCCCCN(CCCOC)C(=O)C(CCC(=O)O)NC(=O)c1ccc(Cl)c(Cl)c1 (stereo not given)	inactive: -5.19% [at 35.3 µM]	
CC[C@@H](CO)NCCN[C@@H](CC)CO	inactive: 9.94% [at 35.3 µM]	
CCCCNC(N)=O		inactive

Part of the list above, comma-delimited.
Compound,activation,Potency
CCCCCCCCCCCCSC,inactive: 7.23%,
CCCC(=O)OCCc1ccccc1,inactive: 14.6%,
CCCCNC(N)=O,,inactive
